Assay results reported in article PMC9526944.
Results are given in words; binding and its absence hold for the method and conditions named. Binding seen in cells or lysates may run through a third protein. Some results given as binding are weak or reduced against the parent protein; the word gives no strength. Each block holds one substance with its values, some of them ahead of it.

Sequences of proteins named here, by UniProt entry; tags and fusion partners are left off.
UniProt Q91YI4: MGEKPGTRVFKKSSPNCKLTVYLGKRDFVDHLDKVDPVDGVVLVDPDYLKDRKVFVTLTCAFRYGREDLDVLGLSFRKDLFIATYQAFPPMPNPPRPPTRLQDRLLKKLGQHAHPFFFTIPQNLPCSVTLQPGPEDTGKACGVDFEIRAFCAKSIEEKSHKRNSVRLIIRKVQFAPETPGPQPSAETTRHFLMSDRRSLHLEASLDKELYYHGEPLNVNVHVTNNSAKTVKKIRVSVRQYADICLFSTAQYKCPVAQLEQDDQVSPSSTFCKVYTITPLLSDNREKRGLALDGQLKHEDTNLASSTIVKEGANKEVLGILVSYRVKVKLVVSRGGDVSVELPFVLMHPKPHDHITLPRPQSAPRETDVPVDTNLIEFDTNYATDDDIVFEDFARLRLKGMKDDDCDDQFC
UniProt P42227: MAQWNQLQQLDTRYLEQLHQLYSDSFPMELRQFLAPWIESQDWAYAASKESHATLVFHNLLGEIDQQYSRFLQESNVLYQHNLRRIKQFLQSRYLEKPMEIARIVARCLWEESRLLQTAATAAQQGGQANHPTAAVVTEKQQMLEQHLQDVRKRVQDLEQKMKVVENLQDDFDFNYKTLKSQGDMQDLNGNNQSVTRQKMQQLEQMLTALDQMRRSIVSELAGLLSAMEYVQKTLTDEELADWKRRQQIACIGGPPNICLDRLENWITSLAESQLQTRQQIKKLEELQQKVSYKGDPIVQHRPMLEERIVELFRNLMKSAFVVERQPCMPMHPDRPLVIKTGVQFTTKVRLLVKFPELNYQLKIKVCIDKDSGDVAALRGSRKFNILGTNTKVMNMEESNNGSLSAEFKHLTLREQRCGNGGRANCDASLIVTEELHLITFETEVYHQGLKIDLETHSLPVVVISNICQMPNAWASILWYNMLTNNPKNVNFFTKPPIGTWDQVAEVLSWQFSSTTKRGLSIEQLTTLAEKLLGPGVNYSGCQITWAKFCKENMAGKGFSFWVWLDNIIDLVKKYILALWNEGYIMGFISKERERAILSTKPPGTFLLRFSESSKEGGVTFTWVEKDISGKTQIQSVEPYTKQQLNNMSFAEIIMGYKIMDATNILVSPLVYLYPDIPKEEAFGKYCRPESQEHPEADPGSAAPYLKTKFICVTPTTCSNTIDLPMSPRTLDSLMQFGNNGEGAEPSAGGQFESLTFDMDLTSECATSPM

What was measured:
[1] = biological target: β-arrestin2 (mouse (endogenous in primary astrocytes)) (UniProt Q91YI4); assay: co-IP; endogenous proteins; lysates of primary astrocytes treated with IL-6 (300 ng/mL) and UNC9995 (10 μM) or not, immunoprecipitated with anti-STAT3 or with anti-β-arrestin2 antibody, immunoblotting
[2] = biological target: Flag-tagged STAT3 (in primary astrocytes) (UniProt P42227); assay: co-IP; Flag-tagged STAT3 transfected in primary astrocytes treated with IL-6 (300 ng/mL) and UNC9995 or not; lysates immunoprecipitated with anti-flag antibody, immunoblotting
[3] = biological target: STAT3 (mouse (endogenous in primary astrocytes)) (UniProt P42227); assay: co-IP; endogenous proteins; lysates of primary astrocytes treated with IL-6 (300 ng/mL) and UNC9995 (10 μM) or not, immunoprecipitated with anti-STAT3 or with anti-β-arrestin2 antibody, immunoblotting
[4] = biological target: STAT3 (mouse (endogenous in primary astrocytes)) (UniProt P42227); assay: proximity ligation; Duolink PLA in fixed primary astrocytes pretreated with UNC9995 for 1 h and then stimulated with IL-6 (300 ng/mL) for 24 h; rabbit anti-β-arrestin2 and mouse anti-STAT3 primary antibodies
Flag-tagged STAT3 = Flag-tagged STAT3 (UniProt P42227); assay: co-IP; Flag-tagged STAT3 and β-arrestin2 pcDNA3.1 constructs co-transfected in HEK293T cells; lysates immunoprecipitated with anti-Flag antibody, immunoblotting

binding [1]: binds
Substance: STAT3 (from UniProt P42227 1-770)

binding [2]: binds
binding [3]: binds
binding [4]: binds
Substance: β-arrestin2 (from UniProt Q91YI4 1-410)

binding (Flag-tagged STAT3): binds
Substance: β-arrestin2 (pcDNA3.1 construct) (from UniProt Q91YI4 1-410)
